The source of these data is article PMC4585558.

By UniProt entry, the sequences of proteins in these tests, tags left out.
UniProt Q16539: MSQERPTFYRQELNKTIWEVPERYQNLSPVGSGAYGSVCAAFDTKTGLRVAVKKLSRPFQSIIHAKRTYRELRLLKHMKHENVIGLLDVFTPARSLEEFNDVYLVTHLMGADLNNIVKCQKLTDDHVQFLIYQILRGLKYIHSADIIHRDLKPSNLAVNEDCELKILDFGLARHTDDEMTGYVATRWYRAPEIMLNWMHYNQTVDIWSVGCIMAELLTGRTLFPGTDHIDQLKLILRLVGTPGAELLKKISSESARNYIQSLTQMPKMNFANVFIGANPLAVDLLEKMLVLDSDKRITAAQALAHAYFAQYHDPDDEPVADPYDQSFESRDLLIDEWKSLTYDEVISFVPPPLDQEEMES

These are yes or no findings as the source states them, for the method shown. In cells and extracts the contact can be indirect. Some results given as binding are weak or reduced against the parent protein; the word gives no strength.

This experiment concerns the target p38α (expressed in 293T cells for Fig. 4C) (UniProt Q16539). Kind of experiment: co-IP; 293T cells co-transfected with expression vectors; lysates (20 mM Tris-Cl pH 7.6, 120 mM NaCl, 10% glycerol, 2 mM EDTA, 1% Triton X-100) immunoprecipitated with anti-FLAG Ab and protein A-Sepharose at 4 °C for 4 hours; IB.

B1: MKK3b (expressed in 293T cells for Fig. 4C) (enzyme, UniProt P46734 1-347)
chain: MESPASSQPASMPQSKGKSKRKKDLRISCMSKPPAPNPTPPRNLDSRTFITIGDRNFEVEADDLVTISELGRGAYGVVEKVRHAQSGTIMAVKRIRATVNSQEQKRLLMDLDINMRTVDCFYTVTFYGALFREGDVWICMELMDTSLDKFYRKVLDKNMTIPEDILGEIAVSIVRALEHLHSKLSVIHRDVKPSNVLINKEGHVKMCDFGISGYLVDSVAKTMDAGCKPYMAPERINPELNQKGYNVKSDVWSLGITMIEMAILRFPYESWGTPFQQLKQVVEEPSPQLPADRFSPEFVDFTAQCLRKNPAERMSYLELMEHPFFTLHKTKKTDIAAFVKEILGEDS
On to B1, for which the binding entry is on record as “binds”.
